Experimental data reported in article PMC3763546, “Structural insight into negative DNA supercoiling by DNA gyrase, a bacterial type 2A DNA topoisomerase” (Nucleic Acids Research, 2013).
These are yes or no findings as the source states them, for the method shown. Some entries that bind do so weakly or less than the wild type. Tags and fused reporters may be left off the sequences shown.

Target: T1, Thermus thermophilus DNA gyrase subunit A (GyrA), as it stands in GyrBA-fus (Thermus thermophilus) (UniProt Q5SIL4)
T1 sequence: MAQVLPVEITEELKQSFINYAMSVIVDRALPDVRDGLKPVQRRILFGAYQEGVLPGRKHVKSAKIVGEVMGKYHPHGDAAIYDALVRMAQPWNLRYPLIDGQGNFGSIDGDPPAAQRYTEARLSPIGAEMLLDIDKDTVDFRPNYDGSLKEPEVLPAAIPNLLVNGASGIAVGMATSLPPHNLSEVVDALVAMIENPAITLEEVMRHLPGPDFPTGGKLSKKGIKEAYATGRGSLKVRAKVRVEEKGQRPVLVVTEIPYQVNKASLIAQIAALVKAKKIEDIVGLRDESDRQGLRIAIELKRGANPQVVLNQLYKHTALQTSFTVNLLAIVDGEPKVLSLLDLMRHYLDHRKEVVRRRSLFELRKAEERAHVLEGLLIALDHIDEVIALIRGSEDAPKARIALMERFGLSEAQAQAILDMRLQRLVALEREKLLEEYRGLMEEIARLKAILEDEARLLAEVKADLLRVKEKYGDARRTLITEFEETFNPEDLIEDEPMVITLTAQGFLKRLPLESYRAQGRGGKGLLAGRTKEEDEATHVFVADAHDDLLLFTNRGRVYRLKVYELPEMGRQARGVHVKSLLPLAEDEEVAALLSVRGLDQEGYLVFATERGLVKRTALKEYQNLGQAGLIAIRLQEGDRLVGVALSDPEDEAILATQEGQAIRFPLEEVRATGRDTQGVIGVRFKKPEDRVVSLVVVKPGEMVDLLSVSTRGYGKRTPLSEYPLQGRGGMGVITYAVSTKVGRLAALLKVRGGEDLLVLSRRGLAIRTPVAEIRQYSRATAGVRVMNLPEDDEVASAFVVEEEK
Experiment: cryo-EM structure; DNA-bound complex: GyrBA-fus with 155 bp DNA, ciprofloxacin and ADPNP; single-particle reconstruction, no symmetry applied, 23 A (FSC 0.5); crystal structures of homologous domains fitted; both purified

binding: binds
B1: Thermus thermophilus DNA gyrase subunit A (GyrA), as it stands in GyrBA-fus (enzyme, UniProt Q5SIL4 1-805)
chain: MAQVLPVEITEELKQSFINYAMSVIVDRALPDVRDGLKPVQRRILFGAYQEGVLPGRKHVKSAKIVGEVMGKYHPHGDAAIYDALVRMAQPWNLRYPLIDGQGNFGSIDGDPPAAQRYTEARLSPIGAEMLLDIDKDTVDFRPNYDGSLKEPEVLPAAIPNLLVNGASGIAVGMATSLPPHNLSEVVDALVAMIENPAITLEEVMRHLPGPDFPTGGKLSKKGIKEAYATGRGSLKVRAKVRVEEKGQRPVLVVTEIPYQVNKASLIAQIAALVKAKKIEDIVGLRDESDRQGLRIAIELKRGANPQVVLNQLYKHTALQTSFTVNLLAIVDGEPKVLSLLDLMRHYLDHRKEVVRRRSLFELRKAEERAHVLEGLLIALDHIDEVIALIRGSEDAPKARIALMERFGLSEAQAQAILDMRLQRLVALEREKLLEEYRGLMEEIARLKAILEDEARLLAEVKADLLRVKEKYGDARRTLITEFEETFNPEDLIEDEPMVITLTAQGFLKRLPLESYRAQGRGGKGLLAGRTKEEDEATHVFVADAHDDLLLFTNRGRVYRLKVYELPEMGRQARGVHVKSLLPLAEDEEVAALLSVRGLDQEGYLVFATERGLVKRTALKEYQNLGQAGLIAIRLQEGDRLVGVALSDPEDEAILATQEGQAIRFPLEEVRATGRDTQGVIGVRFKKPEDRVVSLVVVKPGEMVDLLSVSTRGYGKRTPLSEYPLQGRGGMGVITYAVSTKVGRLAALLKVRGGEDLLVLSRRGLAIRTPVAEIRQYSRATAGVRVMNLPEDDEVASAFVVEEEK
